According to doi:10.1101/2020.06.06.138156 (bioRxiv, 2020):
Results are given in words; binding and its absence hold for the method and conditions named. In cells and extracts the contact can be indirect. Some results given as binding are weak or reduced against the parent protein; the word gives no strength. For some of these results: Tags and fused reporters may be left off the sequences shown.

Columns and labels:
Assay in all cases: pull-down
[1] = biological target: T1, Halo-SETD2 2264-2564 (human) (UniProt Q9BYW2)
T1 sequence: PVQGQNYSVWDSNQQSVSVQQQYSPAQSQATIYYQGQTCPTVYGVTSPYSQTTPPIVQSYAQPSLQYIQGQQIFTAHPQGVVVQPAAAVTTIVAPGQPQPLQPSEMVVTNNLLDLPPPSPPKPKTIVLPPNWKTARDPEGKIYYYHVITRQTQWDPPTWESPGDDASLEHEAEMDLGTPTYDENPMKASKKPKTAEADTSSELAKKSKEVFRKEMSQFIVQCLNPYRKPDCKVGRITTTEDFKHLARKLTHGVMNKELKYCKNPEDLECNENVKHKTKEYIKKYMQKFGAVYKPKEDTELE

[2] = biological target: T2, Halo-ySet2 (yeast) (UniProt P46995)
T2 sequence: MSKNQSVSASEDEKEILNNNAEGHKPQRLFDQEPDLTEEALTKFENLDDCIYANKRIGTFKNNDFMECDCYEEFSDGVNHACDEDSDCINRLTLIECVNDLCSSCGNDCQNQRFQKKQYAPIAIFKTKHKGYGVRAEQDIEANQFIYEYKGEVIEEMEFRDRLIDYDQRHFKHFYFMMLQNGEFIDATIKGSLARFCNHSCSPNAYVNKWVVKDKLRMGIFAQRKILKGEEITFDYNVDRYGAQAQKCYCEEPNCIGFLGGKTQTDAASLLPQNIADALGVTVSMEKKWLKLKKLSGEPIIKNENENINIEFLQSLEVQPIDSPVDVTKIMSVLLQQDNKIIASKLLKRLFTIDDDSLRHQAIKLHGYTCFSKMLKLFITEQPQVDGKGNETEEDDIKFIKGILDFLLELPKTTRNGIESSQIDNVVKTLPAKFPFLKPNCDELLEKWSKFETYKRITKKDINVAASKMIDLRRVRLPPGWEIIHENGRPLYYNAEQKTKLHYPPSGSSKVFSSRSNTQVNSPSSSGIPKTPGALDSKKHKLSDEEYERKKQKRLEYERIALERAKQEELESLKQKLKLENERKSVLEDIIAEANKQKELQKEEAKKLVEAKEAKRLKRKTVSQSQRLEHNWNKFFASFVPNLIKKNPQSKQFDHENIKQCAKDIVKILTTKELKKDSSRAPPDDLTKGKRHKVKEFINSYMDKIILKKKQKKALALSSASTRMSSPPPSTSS

[3] = biological target: T3, Halo-FLAG-SETD2C (human) (UniProt Q9BYW2)
T3 sequence: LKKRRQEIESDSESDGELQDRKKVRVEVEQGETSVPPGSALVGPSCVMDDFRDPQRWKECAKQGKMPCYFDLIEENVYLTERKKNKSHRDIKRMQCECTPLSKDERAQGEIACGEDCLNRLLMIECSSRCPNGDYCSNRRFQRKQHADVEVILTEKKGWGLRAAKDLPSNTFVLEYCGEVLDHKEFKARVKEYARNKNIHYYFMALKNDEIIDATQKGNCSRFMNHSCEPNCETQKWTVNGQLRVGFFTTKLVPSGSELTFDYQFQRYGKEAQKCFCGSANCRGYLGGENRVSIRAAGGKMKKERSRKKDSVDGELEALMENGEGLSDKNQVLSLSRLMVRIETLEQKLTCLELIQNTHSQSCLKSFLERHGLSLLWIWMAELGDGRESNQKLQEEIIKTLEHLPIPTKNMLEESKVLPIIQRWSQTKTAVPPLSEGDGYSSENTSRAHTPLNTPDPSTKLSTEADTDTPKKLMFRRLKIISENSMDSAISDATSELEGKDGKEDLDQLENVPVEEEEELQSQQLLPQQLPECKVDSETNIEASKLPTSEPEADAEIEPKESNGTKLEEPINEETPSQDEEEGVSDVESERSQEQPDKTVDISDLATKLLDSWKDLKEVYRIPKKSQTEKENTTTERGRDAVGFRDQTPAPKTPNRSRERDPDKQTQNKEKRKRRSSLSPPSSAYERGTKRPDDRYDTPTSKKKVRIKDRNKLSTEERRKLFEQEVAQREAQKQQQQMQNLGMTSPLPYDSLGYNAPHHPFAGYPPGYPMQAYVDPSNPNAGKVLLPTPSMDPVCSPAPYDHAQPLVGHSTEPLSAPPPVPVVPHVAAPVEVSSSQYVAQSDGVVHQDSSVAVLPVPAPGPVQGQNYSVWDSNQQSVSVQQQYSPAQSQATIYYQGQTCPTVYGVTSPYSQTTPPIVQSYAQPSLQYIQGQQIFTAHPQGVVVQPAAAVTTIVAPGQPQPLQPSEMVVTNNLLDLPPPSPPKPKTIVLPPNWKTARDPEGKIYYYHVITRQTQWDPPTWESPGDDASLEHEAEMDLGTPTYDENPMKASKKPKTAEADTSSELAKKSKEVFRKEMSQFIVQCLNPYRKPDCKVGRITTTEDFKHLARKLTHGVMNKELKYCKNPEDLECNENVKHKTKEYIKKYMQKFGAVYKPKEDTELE

[4] = biological target: T4, Halo-SETD2C (1404-2564) (human) (UniProt Q9BYW2)
T4 sequence: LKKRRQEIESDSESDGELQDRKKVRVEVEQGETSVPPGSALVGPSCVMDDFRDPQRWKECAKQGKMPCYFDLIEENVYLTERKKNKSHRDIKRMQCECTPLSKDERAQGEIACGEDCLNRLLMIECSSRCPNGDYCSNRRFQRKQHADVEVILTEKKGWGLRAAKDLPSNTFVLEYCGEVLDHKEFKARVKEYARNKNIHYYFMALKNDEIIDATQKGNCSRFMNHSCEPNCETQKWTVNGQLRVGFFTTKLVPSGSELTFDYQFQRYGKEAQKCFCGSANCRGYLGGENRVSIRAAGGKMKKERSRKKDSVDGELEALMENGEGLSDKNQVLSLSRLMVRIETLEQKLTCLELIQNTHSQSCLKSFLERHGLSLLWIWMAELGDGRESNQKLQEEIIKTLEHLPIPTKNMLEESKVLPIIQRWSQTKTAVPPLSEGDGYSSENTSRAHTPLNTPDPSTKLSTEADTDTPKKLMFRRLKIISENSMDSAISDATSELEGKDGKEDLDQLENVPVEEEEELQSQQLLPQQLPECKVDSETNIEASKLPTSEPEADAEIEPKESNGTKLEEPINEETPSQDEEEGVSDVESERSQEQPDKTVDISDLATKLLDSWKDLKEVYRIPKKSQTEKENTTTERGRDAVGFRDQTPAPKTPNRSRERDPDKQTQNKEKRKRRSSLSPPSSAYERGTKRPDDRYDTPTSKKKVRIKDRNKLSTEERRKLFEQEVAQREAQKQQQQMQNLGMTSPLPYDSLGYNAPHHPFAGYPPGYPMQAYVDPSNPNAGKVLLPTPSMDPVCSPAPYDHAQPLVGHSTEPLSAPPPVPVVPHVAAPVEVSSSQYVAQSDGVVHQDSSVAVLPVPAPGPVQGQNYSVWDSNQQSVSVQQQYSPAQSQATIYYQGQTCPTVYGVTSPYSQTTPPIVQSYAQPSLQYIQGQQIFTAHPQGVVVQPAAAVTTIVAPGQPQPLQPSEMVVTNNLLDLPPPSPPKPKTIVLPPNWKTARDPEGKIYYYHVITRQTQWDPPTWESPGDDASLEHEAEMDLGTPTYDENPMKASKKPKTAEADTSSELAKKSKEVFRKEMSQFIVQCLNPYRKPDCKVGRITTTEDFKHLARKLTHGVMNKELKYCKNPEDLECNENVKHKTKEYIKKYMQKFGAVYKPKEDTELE

binding [1]: no binding
binding [2]: no binding
binding [3]: binds
binding [4]: binds
B1: hnRNP L (endogenous) (protein, UniProt P14866 1-589)
chain: MSRRLLPRAEKRRRRLEQRQQPDEQRRRSGAMVKMAAAGGGGGGGRYYGGGSEGGRAPKRLKTDNAGDQHGGGGGGGGGAGAAGGGGGGENYDDPHKTPASPVVHIRGLIDGVVEADLVEALQEFGPISYVVVMPKKRQALVEFEDVLGACNAVNYAADNQIYIAGHPAFVNYSTSQKISRPGDSDDSRSVNSVLLFTILNPIYSITTDVLYTICNPCGPVQRIVIFRKNGVQAMVEFDSVQSAQRAKASLNGADIYSGCCTLKIEYAKPTRLNVFKNDQDTWDYTNPNLSGQGDPGSNPNKRQRQPPLLGDHPAEYGGPHGGYHSHYHDEGYGPPPPHYEGRRMGPPVGGHRRGPSRYGPQYGHPPPPPPPPEYGPHADSPVLMVYGLDQSKMNCDRVFNVFCLYGNVEKVKFMKSKPGAAMVEMADGYAVDRAITHLNNNFMFGQKLNVCVSKQPAIMPGQSYGLEDGSCSYKDFSESRNNRFSTPEQAAKNRIQHPSNVLHFFNAPLEVTEENFFEICDELGVKRPSSVKVFSGKSERSSSGLLEWESKSDALETLGFLNHYQMKNPNGPYPYTLKLCFSTAQHAS
